In all, about 390,000 compounds went through this assay and about 760 (0.19%) were called active. The shares of active, inactive and inconclusive entries below differ from those in the screen. The call rests on the fitted dose curve; in most records, active means well fitted inhibition curve with a large enough effect; inconclusive means small, poorly fitted or top-dose-only effect; inactive means flat fitted curve, though single readings scatter. Potencies of inconclusive entries are doubtful fits and often do not repeat.
Test: qHTS for Inhibitors of Vif-A3F Interactions: qHTS; further: nearly all actives have a fitted effect of over 65% in size; on activity, negative = active: % of control where 0% means no effect
Settings: HeLa A3F-eYFP + Vif (tagged APOBEC3F with the HIV-1 protein that degrades it), YFP fluorescence increase; series mostly up to 46.1 µM; activity, negative = active: at the top concentration
In short: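 HeLa cells stably expressing A3F-eYFP plus Vif, plated and incubated overnight at 37 deg C, then exposed to compounds overnight at 37 deg C. Blocked degradation read as raised yellow fluorescence (Ex 488/Em 500-530).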
Potency means the concentration at half of the fitted maximal effect.

Which Potency does the source give for `O=C(CN1CCN(C(=O)c2ccco2)CC1)Nc1ccc(Br)cc1` here?
The Potency was inconclusive: 15.8 µM [inhibitor, single point].

With `Cc1ccc(NC(=O)c2sc3nc4c(cc3c2N)CN(Cc2ccccc2)CC4)cc1` as the compound, how does the Potency read?
The Potency was inconclusive: 17.8 µM [inhibitor, partial curve, poor fit].

Which Potency does the source give for `N#Cc1ccccc1S(=O)(=O)N1CCN(CC(=O)NC(=O)NC2CCCCC2)CC1` here?
The Potency was inconclusive: 10 µM [inhibitor, partial curve, poor fit].

With `COc1cccc2sc3ccc(NCc4ccc5c(c4)OCO5)cc3c(=O)c12` as the compound, how does the Potency read?
The Potency was inconclusive: 22.4 µM [inhibitor, single point].

With `Cc1ccc(Cl)cc1N1CCN(S(=O)(=O)c2cc3c(cc2C)NC(=O)CO3)CC1` as the compound, how does the Potency read?
Its Potency is inconclusive: 22.4 µM [inhibitor, single point].

For `O=C(/C=C/c1ccc2c(c1)OCO2)c1ccccn1`, which Potency is on record?
The Potency was inconclusive: 35.5 µM [inhibitor, single point].

Which Potency does the source give for `COc1cc(SC)ccc1C(=O)NCC1CCCCC1` here?
Its Potency is inconclusive: 6.31 µM [inhibitor, single point].

Which Potency does the source give for `Cc1ccc(Cn2c(=N)n(CC(=O)c3ccc([N+](=O)[O-])cc3)c3ccccc32)cc1` here?
The Potency was inconclusive: 2.82 µM [inhibitor, partial curve, poor fit].

Which Potency does the source give for `Cn1c(CCCOc2ccc(Cl)cc2Cl)n[nH]c1=S` here?
Its Potency is inconclusive: 35.5 µM [inhibitor, single point].

For `Cc1cc(SCC(=O)Nc2ccccc2)n2ncc(-c3ccccc3)c2n1`, which Potency is on record?
The Potency was inconclusive: 35.5 µM [inhibitor, single point].

With `O=C(NCc1ccccn1)/C(=N/O)c1ccccc1` as the compound, how does the “activity, negative = active” value read?
Its value is inactive: 0.661%.

Which “activity, negative = active” value does the source give for `CC(C)c1ccc(OC(=O)c2cc(-c3ccccc3)on2)cc1` here?
The value was inactive: 1.25%.

With `Cc1ccc(/C=N/NC(=O)Cc2ccc(Cl)cc2)c(O)c1` as the compound, how does the Potency read?
The Potency was inconclusive: 22.4 µM [inhibitor, single point].

With `COc1ccc(-c2cc(=O)oc3cc(O)ccc23)cc1` as the compound, how does the “activity, negative = active” value read?
Its value is inactive: 3.27%.

For `COc1ccc(CN2CCNC(=O)C2CC(=O)NCCN2CCCCC2=O)c(F)c1` (configuration not stated), which Potency is on record?
Its Potency is inconclusive: 0.562 µM [inhibitor, full curve, poor fit].

With `c1cc2c(cc1C1=NNC(=NC3CC3)SC1)OCCO2` as the compound, how does the Potency read?
The Potency was inconclusive: 15.8 µM [inhibitor, single point].

Which Potency does the source give for `CO/N=C/C(C(C)=O)C(=O)Nc1ccc(Cl)cc1Cl` (configuration not stated) here?
Its Potency is inconclusive: 1.78 µM [inhibitor, partial curve, poor fit].

Which Potency does the source give for `O=C(NCc1ccccc1)C(c1ccccc1F)N(C(=O)c1csnn1)C1CCCC1` (configuration not stated) here?
The Potency was inconclusive: 5.62 µM [inhibitor, single point].

For `COc1ccc(Cn2c(=O)c3oc4ccccc4c3n(CC(=O)Nc3ccc(F)cc3F)c2=O)cc1`, which Potency is on record?
The Potency was inconclusive: 35.5 µM [inhibitor, single point].

Which “activity, negative = active” value does the source give for `CCOc1ccccc1CN1CCC(O)CC1` here?
Its value is inactive: 1.15%.

Which Potency does the source give for `CCOc1cc(C(c2c(O)nc(SC)[nH]c2=O)c2c(O)nc(SC)[nH]c2=O)ccc1O` here?
Its Potency is inconclusive: 35.5 µM [inhibitor, partial curve, poor fit].

For `C=C(C)CNC(=S)N/N=C/c1c(F)cccc1F`, which Potency is on record?
The Potency was inconclusive: 35.5 µM [inhibitor, single point].

With `CC(=O)NC(c1cc(Cl)c2cccnc2c1O)C1CC1` (configuration not stated) as the compound, how does the Potency read?
Its Potency is inconclusive: 35.5 µM [inhibitor, single point].

For `COc1ccc(OC)c(CCNC(=O)C(C)n2nc(C)c3c(C)n(-c4ccccc4)nc3c2=O)c1` (configuration not stated), which “activity, negative = active” value is on record?
The value was inactive: 0.518%.

With `CCCCCCCc1nc2nc(C)c(Br)c(=O)n2[nH]1` as the compound, how does the “activity, negative = active” value read?
Its value is inactive: 0.451%.

For `C=CCNCCOc1cccc(Br)c1`, which Potency is on record?
Its Potency is inconclusive: 8.91 µM [inhibitor, partial curve, poor fit].

With `NC(=S)NN=C1c2ccccc2-c2ccccc21` as the compound, how does the Potency read?
The Potency was inconclusive: 5.62 µM [inhibitor, single point].

Which “activity, negative = active” value does the source give for `CCC(C)N(C(=O)CSc1ncnc2sccc12)C1CCS(=O)(=O)C1` (configuration not stated) here?
Its value is inactive: -6.84%.

For `CCCC(=O)Nc1ccc(-c2nc3ncccc3o2)cc1C`, which “activity, negative = active” value is on record?
Its value is inactive: 4.04%.

With `CCc1ccc(NC(=S)N(CCN2CCCCC2)Cc2ccco2)cc1` as the compound, how does the Potency read?
Its Potency is inconclusive: 35.5 µM [inhibitor, single point].

Which Potency does the source give for `O=C(CSc1nnc(-c2ccccc2)o1)N1CCCC1` here?
Its Potency is inconclusive: 4.47 µM [inhibitor, single point].

With `Nc1ccccc1C=C1Cc2ccccc2C1=O` as the compound, how does the Potency read?
The Potency was active: 6.31 µM.

For `Cc1ccc2cc3c(N)c(C(=O)Nc4c(C)[nH]c(=O)[nH]c4=O)sc3nc2c1`, which Potency is on record?
Its Potency is inconclusive: 35.5 µM [inhibitor, single point].

For `NS(=O)(=O)c1ccc(NC(=S)N2CCN(c3ccc(Cl)c(Cl)c3)CC2)cc1`, which “activity, negative = active” value is on record?
The value was inactive: -6.5%.

For `OCCN(CCO)c1ccc2ccccc2c1`, which “activity, negative = active” value is on record?
Its value is inactive: 6.42%.

For `COc1cccc(N2CCN(C3C4CC5CC(C4)CC3C5)CC2)c1` (configuration not stated), which Potency is on record?
The Potency was inconclusive: 31.6 µM [inhibitor, partial curve, poor fit].

Which Potency does the source give for `S=C(Nc1ccccn1)NC1CCCCC1` here?
Its Potency is inconclusive: 25.1 µM [inhibitor, single point].

With `CCOc1ccccc1NC(=O)CSc1nc2cc(O)ccc2c(=O)n1-c1ccc(OC)c(OC)c1` as the compound, how does the Potency read?
Its Potency is inconclusive: 35.5 µM [inhibitor, single point].

Which Potency does the source give for `CCOc1ccc(S(=O)(=O)Nc2ccc(OC)nc2)cc1` here?
Its Potency is inconclusive: 22.4 µM [inhibitor, single point].

For `CN(C)CCCn1c(=S)[nH]c2sc3c(c2c1=O)CCCC3`, which “activity, negative = active” value is on record?
The value was inactive: -2.07%.

With `CCCCS/C(N)=N/N=C/c1ccccc1O` as the compound, how does the “activity, negative = active” value read?
Its value is inactive: -11.8%.

Which Potency does the source give for `CCN1C(=O)c2cccc3c(S(=O)(=O)N4CCCC4C(=O)O)ccc1c23` (configuration not stated) here?
Its Potency is inconclusive: 0.562 µM [inhibitor, full curve, poor fit].

Which “activity, negative = active” value does the source give for `COc1ccccc1N1CCN(CCCNC(=O)c2cnn(-c3ccccc3)c2C2CCN(C(=O)OC(C)(C)C)CC2)CC1` here?
Its value is inactive: -3.57%.

For `Cc1onc(-c2c(F)cccc2Cl)c1C(N)=S`, which Potency is on record?
Its Potency is inconclusive: 3.55 µM [inhibitor, single point].

With `COc1ccc(Cc2c(O)nc(SCC(=O)c3ccc(OC)cc3)[nH]c2=O)cc1` as the compound, how does the Potency read?
Its Potency is inconclusive: 3.16 µM [inhibitor, single point].

Which Potency does the source give for `Cc1ccc(C(C)C)c(OCCNCc2ccccc2)c1` here?
The Potency was inconclusive: 20 µM [inhibitor, single point].

For `COC(=O)C1=C(C)N(c2cccc(C)c2)C(=O)/C1=C\c1cccs1`, which Potency is on record?
The Potency was inconclusive: 35.5 µM [inhibitor, single point].

With `Cc1nn(-c2ccc([N+](=O)[O-])cc2)c2c1C(c1ccc(OC(F)F)cc1)N1C(=N2)C(=O)Nc2ccccc21` (configuration not stated) as the compound, how does the Potency read?
Its Potency is inconclusive: 11.2 µM [inhibitor, partial curve, poor fit].

With `C(=C\c1ccco1)/C1=NN(c2ccccc2)C(c2ccco2)C1` (configuration not stated) as the compound, how does the Potency read?
Its Potency is active: 25.1 µM.

With `COc1ccc(-n2c(O)c(/C=N/NS(=O)(=O)c3cc(C)ccc3C)c3ccccc3c2=O)cc1OC` as the compound, how does the Potency read?
Its Potency is inconclusive: 2.51 µM [inhibitor, full curve, poor fit].

With `O=C(Nc1ccc(S(=O)(=O)N2CCCC2)cc1)c1ccc([N+](=O)[O-])o1` as the compound, how does the Potency read?
The Potency was inconclusive: 5.62 µM [inhibitor, single point].

For `Cc1cccn2c(=O)c3cc(C(=O)NCCN4CCOCC4)c(=N)n(Cc4ccc(F)cc4)c3nc12`, which “activity, negative = active” value is on record?
The value was inactive: 1.57%.

For `O=[N+]([O-])c1ccc(NCCCN2CCOCC2)c([N+](=O)[O-])c1`, which Potency is on record?
Its Potency is inconclusive: 2 µM [inhibitor, partial curve, poor fit].

For `O=C(N/N=C\C=C\c1ccc([N+](=O)[O-])o1)c1cccs1`, which Potency is on record?
Its Potency is inconclusive: 15.8 µM [inhibitor, partial curve, poor fit].

With `CC(=O)n1c(C=Nc2ccccc2)c(O)c2ccccc21` as the compound, how does the Potency read?
The Potency was inconclusive: 5.01 µM [inhibitor, partial curve, poor fit].

For `Cc1cc(C)c2[nH]c(=O)c(CN(CC3CCCO3)C(=S)Nc3ccccc3)cc2c1` (configuration not stated), which “activity, negative = active” value is on record?
Its value is inactive: 8.68%.

For `O=C(CN1C(=O)NC2(CCCc3ccccc32)C1=O)N1CCCCC1` (configuration not stated), which Potency is on record?
Its Potency is inconclusive: 3.16 µM [inhibitor, single point].

For `CN(C(=O)COC(=O)c1cnc(Cl)c(Cl)c1)C1CCCCC1`, which Potency is on record?
The Potency was inconclusive: 35.5 µM [inhibitor, single point].

For `c1ccc(-c2cn3nc(-c4ccccc4)c(-c4ccccc4)nc3n2)cc1`, which Potency is on record?
The Potency was inconclusive: 35.5 µM [inhibitor, single point].

Which Potency does the source give for `C=CCOc1ccc2cccc(/C=N/NC(=O)c3cc4cc([N+](=O)[O-])ccc4s3)c2c1` here?
The Potency was inconclusive: 5.01 µM [inhibitor, full curve, poor fit].

For `OCCCc1nc2n(n1)C(c1ccccc1Cl)C=C(c1cccs1)N2` (configuration not stated), which Potency is on record?
The Potency was inconclusive: 22.4 µM [inhibitor, single point].

Which “activity, negative = active” value does the source give for `O=C(CSc1ncc2c(n1)-c1ccccc1N(Cc1ccccc1)S2(=O)=O)Nc1ccccc1` here?
The value was inactive: -6.23%.

Which Potency does the source give for `O=C1N=c2ccccc2=C1c1sc(=S)n(Cc2ccccc2Cl)c1O` here?
Its Potency is inconclusive: 7.94 µM [inhibitor, partial curve, poor fit].

For `COc1ccc(N2C(=O)CC(Sc3n[nH]c(-c4ccccc4)n3)C2=O)cc1` (configuration not stated), which “activity, negative = active” value is on record?
Its value is inactive: -3.81%.

With `Cc1ccc(NC(=O)Cn2c(=O)n(-c3ccccc3)c(=O)c3c4c(sc32)CCCC4)cc1` as the compound, how does the Potency read?
Its Potency is inconclusive: 2.82 µM [inhibitor, full curve, poor fit].

For `CC(C)CN(Cc1c(O)ccc2ccccc12)CC(C)C`, which Potency is on record?
The Potency was inconclusive: 35.5 µM [inhibitor, single point].

For `CCCN1C(=O)C(Cc2nc3ccccc3c(=O)n2-c2ccccc2)c2cc(C)ccc21` (configuration not stated), which Potency is on record?
The Potency was inconclusive: 10 µM [inhibitor, partial curve, poor fit].
